# PMC5132312
# The chains behind the UniProt entries cited, without tags or fusion partners.
# UniProt P19338, whole entry: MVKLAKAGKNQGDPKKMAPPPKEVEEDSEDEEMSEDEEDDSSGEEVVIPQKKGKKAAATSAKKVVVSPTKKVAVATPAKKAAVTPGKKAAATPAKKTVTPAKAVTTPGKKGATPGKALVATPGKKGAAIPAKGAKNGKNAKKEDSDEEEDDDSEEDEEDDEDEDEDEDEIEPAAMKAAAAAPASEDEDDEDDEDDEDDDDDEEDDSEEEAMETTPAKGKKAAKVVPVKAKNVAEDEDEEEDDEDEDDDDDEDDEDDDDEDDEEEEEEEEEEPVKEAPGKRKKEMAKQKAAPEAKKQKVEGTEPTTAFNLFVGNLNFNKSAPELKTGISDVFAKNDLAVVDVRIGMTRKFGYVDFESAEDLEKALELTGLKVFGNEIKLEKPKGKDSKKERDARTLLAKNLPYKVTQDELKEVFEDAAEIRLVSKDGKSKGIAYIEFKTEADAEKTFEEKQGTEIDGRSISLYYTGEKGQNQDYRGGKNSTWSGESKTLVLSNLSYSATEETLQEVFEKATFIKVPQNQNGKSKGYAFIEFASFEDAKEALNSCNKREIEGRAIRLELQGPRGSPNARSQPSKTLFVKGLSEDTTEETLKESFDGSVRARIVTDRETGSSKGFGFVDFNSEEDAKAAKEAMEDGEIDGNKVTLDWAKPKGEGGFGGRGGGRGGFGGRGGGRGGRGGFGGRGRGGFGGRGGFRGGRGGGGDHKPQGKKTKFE
# Construct, isoform or probe ends are uncertain for at least one entry. At least one result comes from cells or an extract, where the contact may be indirect. At least one verdict rests on a figure or table, not on a statement of the authors.
# Biological target: nucleolin (NCL) (UniProt P19338)
# Assay: competition (RNA pull-down)
# Conditions: AS1411 antagonizes NCL binding to p53 5'UTR RNA; protein in an extract; folded or branched DNA
sequence,measurement,value
GGTGGTGGTGGTTGTGGTGGTGGTGG [AS1411],binding result,binds
